Numbering of substitutions follows the chain as printed. Results are given in words; binding and its absence hold for the method and conditions named. Some entries that bind do so weakly or less than the wild type. For some assays here: Where a sequence is shown, tags or fusion partners need not be part of it.
T1: human MCAM (melanoma cell adhesion molecule), expressed on transfected CHO cells (human) (UniProt P43121)
T1 sequence: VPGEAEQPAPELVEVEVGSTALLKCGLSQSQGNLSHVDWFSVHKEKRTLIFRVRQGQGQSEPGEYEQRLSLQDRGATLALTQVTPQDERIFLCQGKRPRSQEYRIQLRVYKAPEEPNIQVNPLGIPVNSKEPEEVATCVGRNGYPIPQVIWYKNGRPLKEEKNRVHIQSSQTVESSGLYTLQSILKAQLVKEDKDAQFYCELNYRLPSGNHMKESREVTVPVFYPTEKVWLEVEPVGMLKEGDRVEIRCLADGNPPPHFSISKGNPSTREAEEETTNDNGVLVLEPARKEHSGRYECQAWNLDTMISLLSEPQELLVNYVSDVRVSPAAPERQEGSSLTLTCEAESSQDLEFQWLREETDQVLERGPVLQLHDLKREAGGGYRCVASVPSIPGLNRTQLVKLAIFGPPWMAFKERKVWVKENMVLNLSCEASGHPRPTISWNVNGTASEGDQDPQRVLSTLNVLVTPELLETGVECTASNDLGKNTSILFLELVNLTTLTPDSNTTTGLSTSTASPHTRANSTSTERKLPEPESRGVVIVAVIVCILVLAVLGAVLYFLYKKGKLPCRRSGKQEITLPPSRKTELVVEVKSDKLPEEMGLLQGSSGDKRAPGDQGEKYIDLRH

T2: Murine MCAM domain 1 and 2 (Ig1-2A) with human IgG Fc tag (mouse; human) (UniProt Q8R2Y2)
T2 sequence (looked up): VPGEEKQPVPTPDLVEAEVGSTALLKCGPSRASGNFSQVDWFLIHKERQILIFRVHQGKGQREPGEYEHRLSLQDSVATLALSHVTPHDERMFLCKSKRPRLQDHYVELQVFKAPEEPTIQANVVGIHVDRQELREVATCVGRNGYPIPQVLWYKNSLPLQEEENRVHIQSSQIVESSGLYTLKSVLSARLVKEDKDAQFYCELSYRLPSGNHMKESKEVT

B1: mouse anti-human MCAM monoclonal antibody clone 1415.1.1 (antibody, V domains shown)
VH: QVQLQQPGAELVQPGAPVKLSCKASGYIFTSYWMNWVKQRPGRGLEWIGRIDPSDSKIHYNQKFKDKATLTVDRSSSTAYIQLGSLTSEDSAVYYCAKEGGLRRGDYAMDYWGQGTSVTVSS
VL: DIVMTQSPATLSVTPGDRVSLSCRASQSISDYLHWYQQKSHESPRLLIKYASQSISGIPSRFSGSGSGSDFTLSINSVEPEDVGVYYCQNGHNFPRTFGGGTKLEIK
B2: mouse anti-human MCAM monoclonal antibody clone 1174.1.3 (antibody, V domains shown)
VH: QIQLVQSGPELKKPGETVKISCKASGYTFTNYGMNWVKQAPGKGLKWMGWINTYTGEPTYADDFKGRFALSLETSASTAYLQINNLKNEDMATYFCARYRYNKYERAMDYWGQGTSVTVSS
VL: DIVLTQSPASLAVSLGQRATISCRASKSVSTSGYSYMYWYQQKPGQPPKLLIYLASNLESGVPARFSGSGSGTDFTLNIHPVEEEDAATYYCQHSRELPFTFGSGTKLEIK
B3: mouse anti-human MCAM monoclonal antibody clone 1749.1.3 (antibody, V domains shown)
VH: DVKLVESGGDLVKPGGSLKLSCAASGFTFSSYIMSWVRQTPEKRLEWVATISSGGSSTYYPDSVKGRFTISRDNAKNTLYLQMSSLKSEDTAMYYCTRDDDYDVKVFAYWGQGTLVTVSA
VL: DIVMSQSPSSLAVSAGEKVTMNCKSSRSLLNSRIRKNYLAWYQQKPGQSPKLLIYWASTRESGVPDRFTGSGSGTDFTLTISSVQAEDLAVYYCKQSYNLLTFGAGTKLELK
B4: mouse anti-human MCAM monoclonal antibody clone 1414.1.2 (antibody, V domains shown)
VH: EIQLQQTGPELVKPGASVKISCKASGYSFTDYIMLWVKQSHGKSLEWIGNINPYSGSSGYNLKFKGKATLTVDKSSSTAYMQLNSLTSEDSAVYYCARGKDFAMDYWGQGTSVTVSS
VL: B3 VL with N22S, R27Q, R33S, I34T, Y38F, L100R, L101Y, A105G, L111I
B5: anti-MCAM monoclonal antibody clone 15 (antibody, V domains shown)
VH: EVRLVESGGGLVQPGKSMKLSCVASGFKFSNYYMSWVRQAPAKGLEWVASISDGGGDTFCRDLVKGRFTISRDNAKSTLYLQMDSLRPEDTATYYCARRGAAMGGVMDAWGQGTSVTVSS
VL: DIVMTQSPSSLAVSAGETVSIHCKSSQSLLYSGTQKNYLAWFQQKPGQSPKLLIFWASTRQSGVPDRFIGRGSGTDFTLTISGVQAEDLAIYYCQQYYDTLTDTFGAGTKLELKR
B6: h1749VH2 + h1749VL1 (antibody, V domains shown)
VH: EVQLVESGGGLVQPGGSLRLSCAASGFTFSSYIMSWVRQAPGKRLEWVATISSGGSSTYYPDSVKGRFTISRDNAKNSLYLQMNSLRAEDTAVYYCTRDDDYDVKVFAYWGQGTMVTVSS
VL: DIVMTQSPDSLAVSLGERATINCKSSRSLLNSRIRKNYLAWYQQKPGQPPKLLIYWASTRESGVPDRFSGSGSGTDFTLTISSLQAEDVAVYYCKQSYNLLTFGQGTKVEIK
B7: chimeric 1749 (antibody, V domains shown)
VH: B3 VH
VL: B3 VL
B8: h2107_VH2 + h2107_VL2 (antibody, V domains shown)
VH: QVTLKESGPVLVKPTETLTLTCTVSGFSLTSNGVSWVRQPPGKALEWIAAISSGGSTYYNSAFKSRLSISRDTSKSQVVLTMTNMDPVDTATYYCARHRPFYFDYWGQGTLVTVSS
VL: DIQMTQSPSSLSASVGDRVTITCKGSQNIYKSLAWFQLKPGKVPKLLIYDANSLQTGIPSRFSGSGSGTDFTLTISSLQPEDVATYYCQQYYSGYTFGGGTKVEIK
notes: also called h2107VH2VL2; VH2VL2
B9: h2120_VH5 + h2120_VL3 (antibody, V domains shown)
VH: QVTLKESGPVLVKPTETLTLTCTVSGFSLTSNAVSWVRQPPGKALEWIAAISSGGTTYYNSAFKSRLTISRDTSKSQVVLTMTNMDPVDTATYYCARRYGYGWYFDFWGQGTLVTVSS
VL: DIQMTQSPSSLSASVGDRVTINCKASQNIYNSLAWYQQKPGKAPKVLIFNANSLQTGIPSRFSGSGSGTDFTLTISSLQPEDFATYYCQQFYSGYTFGQGTKLEIK
B10: h1749VH2 + h1749VL2 (antibody, V domains shown)
VH: B6 VH
VL: B6 VL with S69T
B11: h1749VH1 + h1749VL1 (antibody, V domains shown)
VH: B6 VH with R44G
VL: B6 VL
B12: h2107_VH3 + h2107_VL2 (antibody, V domains shown)
VH: B8 VH with S68T, D72N
VL: B8 VL
B13: h2107_VH1 + h2107_VL2 (antibody, V domains shown)
VH: B8 VH with S68T
VL: B8 VL
B14: h2120_VH1 + h2120_VL3 (antibody, V domains shown)
VH: B9 VH with A33G
VL: B9 VL
B15: h2120_VH3 + h2120_VL3 (antibody, V domains shown)
VH: B9 VH with N32S, A33G
VL: B9 VL
B16: h2120_VH2 + h2120_VL3 (antibody, V domains shown)
VH: B9 VH with A33G, T68S
VL: B9 VL

target: T1, human MCAM (melanoma cell adhesion molecule), expressed on transfected CHO cells (human); test: summary of Examples 11 and 12

binding, binds:
B1
B2
B3
B4

target: T2, Murine MCAM domain 1 and 2 (Ig1-2A) with human IgG Fc tag (mouse; human); test: ForteBio Octet Red, Fc-tagged domains on anti-human IgG Fc sensors

binding, binds:
B5

target: T1, human MCAM (melanoma cell adhesion molecule), expressed on transfected CHO cells (human); test: bar chart 'Top three IC50s repeat': IC50 of blocking of laminin 411 binding to hMCAM-expressing CHO cells

binding, binds:
B6
B7
B8
B9

target: T1, human MCAM (melanoma cell adhesion molecule), expressed on transfected CHO cells (human); test: blocking assay of the re-expressed antibodies (Table 7 'Blocking IC50'; laminin/FACS assay of paragraph 438): % inhibition of laminin 411 binding to hMCAM-expressing CHO cells

binding, binds:
B7
B8
B9

target: T1, human MCAM (melanoma cell adhesion molecule), expressed on transfected CHO cells (human); test: laminin/FACS blocking assay: recombinant laminin 411 added to hMCAM-expressing CHO cells with varying antibody, bound laminin detected with labelled anti-laminin by flow cytometry (MFI); blocked ligand laminin 411

binding, binds:
B10
B11
B7
B3
B8
B12
B13
B14
B15
B16

target: T1, human MCAM (melanoma cell adhesion molecule), expressed on transfected CHO cells (human); test: blocking assay of the re-expressed antibodies (Table 7 'Blocking IC50'; laminin/FACS assay of paragraph 438): % inhibition of laminin 411 binding to hMCAM-expressing CHO cells; the legend box prints VH2VL2, FIG. 29B and Table 7 print VH2VL1

binding, binds:
B10
